This assay has as its target T1, FLAG-C4orf27 (histone PARylation factor 1, HPF1), wild type (human) (UniProt Q9NWY4).
T1 sequence: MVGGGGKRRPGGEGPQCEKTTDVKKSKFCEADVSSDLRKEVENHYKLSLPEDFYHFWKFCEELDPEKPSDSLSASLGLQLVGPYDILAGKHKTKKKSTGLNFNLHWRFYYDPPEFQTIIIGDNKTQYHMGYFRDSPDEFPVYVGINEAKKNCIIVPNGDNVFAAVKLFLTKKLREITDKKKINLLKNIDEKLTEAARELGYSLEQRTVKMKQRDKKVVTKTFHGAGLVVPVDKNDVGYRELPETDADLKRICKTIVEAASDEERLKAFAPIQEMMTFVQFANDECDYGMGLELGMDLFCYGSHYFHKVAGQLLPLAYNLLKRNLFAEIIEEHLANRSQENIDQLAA
Kind of assay: affinity purification with mass spectrometry; FLAG-C4orf27-associated proteins, label-free quantification, n = 3 independent experiments; cells and buffers not told in the text shown.

By UniProt entry, the sequences of proteins in these tests, tags left out.
UniProt Q9UNS1: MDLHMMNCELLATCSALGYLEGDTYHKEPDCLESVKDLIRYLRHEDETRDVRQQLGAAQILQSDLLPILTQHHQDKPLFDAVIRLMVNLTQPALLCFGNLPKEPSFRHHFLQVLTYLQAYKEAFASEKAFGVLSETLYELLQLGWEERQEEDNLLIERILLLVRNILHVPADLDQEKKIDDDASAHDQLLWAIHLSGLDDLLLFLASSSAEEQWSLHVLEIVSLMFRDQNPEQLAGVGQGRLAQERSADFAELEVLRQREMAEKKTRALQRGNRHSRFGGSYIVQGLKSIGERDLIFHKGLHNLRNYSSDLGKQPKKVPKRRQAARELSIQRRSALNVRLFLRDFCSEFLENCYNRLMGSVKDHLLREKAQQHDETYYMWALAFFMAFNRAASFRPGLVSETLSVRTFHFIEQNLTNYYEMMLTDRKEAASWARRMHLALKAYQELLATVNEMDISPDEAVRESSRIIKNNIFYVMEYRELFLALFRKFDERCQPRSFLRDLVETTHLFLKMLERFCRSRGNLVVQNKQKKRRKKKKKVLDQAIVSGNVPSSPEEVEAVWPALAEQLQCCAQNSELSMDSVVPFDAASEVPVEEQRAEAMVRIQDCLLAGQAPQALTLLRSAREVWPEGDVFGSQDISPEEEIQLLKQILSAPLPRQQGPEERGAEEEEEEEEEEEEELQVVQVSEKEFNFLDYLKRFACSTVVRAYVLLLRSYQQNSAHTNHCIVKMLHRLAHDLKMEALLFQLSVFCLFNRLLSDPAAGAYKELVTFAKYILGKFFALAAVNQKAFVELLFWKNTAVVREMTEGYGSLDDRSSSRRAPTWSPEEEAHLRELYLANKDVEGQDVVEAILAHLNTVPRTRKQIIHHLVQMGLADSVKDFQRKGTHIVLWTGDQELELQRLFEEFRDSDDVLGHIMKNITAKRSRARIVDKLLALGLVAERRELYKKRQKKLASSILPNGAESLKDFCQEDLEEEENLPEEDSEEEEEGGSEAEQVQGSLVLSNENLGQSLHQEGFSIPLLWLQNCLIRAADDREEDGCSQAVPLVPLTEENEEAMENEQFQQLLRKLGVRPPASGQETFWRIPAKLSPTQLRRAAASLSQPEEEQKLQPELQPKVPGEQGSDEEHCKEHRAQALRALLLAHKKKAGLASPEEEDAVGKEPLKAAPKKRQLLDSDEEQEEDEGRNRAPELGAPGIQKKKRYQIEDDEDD

Results on one substance are retold here after publication PMC4858568.

Results are given in words; binding and its absence hold for the method and conditions named. In cells and extracts the contact can be indirect. These calls come from enrichment with a bait or labelling near it, and not all partners need be listed. No binding means not detected with the bait. Where a sequence is shown, tags or fusion partners need not be part of it.

Regarding “Timeless (endogenous) (from UniProt Q9UNS1 1-1208)”, the binding result is “no binding”.
